Results from patent US10806739B2, “Use of n-desmethylclobazam in the treatment of chronic pain disorders and related methods” (LES HOPITAUX UNIV[…] GENEVE, priority 2015, dated 2020).

Test system: α1GABAAR-mediated sedation
Test: Dose dependence of sedation in triple (H→R) point-mutated mice
Conditions: dose response curves
Procedure: Mice (C57BL/6J or 129X1/SvJ) were tested during the light phase of the day-night cycle. […] Motor activity expressed as the total number of photocell interruptions was recorded for 6 h.

SMILES: O=C1CC(=O)N(c2ccccc2)c2cc(Cl)ccc2N1 [NDMC, 8-Chloro-1-phenyl-1H-1,5-benzodiazepine-2,4(3H,5H)-dione]
- Dose for maximum sedation compared with dose for maximum analgesia: maximum sedation is achieved at higher NDMC dose as compared to NMDC dose needed to achieve maximum analgesia

SMILES: CN1C(=O)CN=C(c2ccccc2)c2cc(Cl)ccc21 [DZP, diazepam]
- Dose for maximum sedation compared with dose for maximum analgesia: maximum sedation is achieved at lower DZP dose as compared to DZP dose needed to achieve maximum analgesia
